Experimental findings from publication PMC8685902, “Perception of structurally distinct effectors by the integrated WRKY domain of a plant immune receptor” are described below.

To fix the notation:
B1: full-length AvrRps4 N171A with C-terminal 4xmyc tag (protein, UniProt Q52432 1-220)
chain: MTRISTSSVNSSFSYSAPAEEAQNRVSSAPTNSSPPGTTTAVAQASEGQKKPGAVLSMHAQRLRQLCESSSHQYRQNALLAKSFDAQRLDINTQAGPSNSPHLNALNKLQQRDFKPAAGGLEIPFTPKSLLGGGKRVYQIGSSSRDVQVCPRGAGAALRQEIEDKQLMVNALTDELQDAIDEANPAEIANTSQQLRHARADLADLQRRFAVLRNEDRRIN
B2: full-length AvrRps4 D164A with C-terminal 4xmyc tag (protein, UniProt Q52432 1-220)
chain: B1 chain with D164A, A171N
B3: full-length AvrRps4 E175A with C-terminal 4xmyc tag (protein, UniProt Q52432 1-220)
chain: B1 chain with A171N, E175A
B4: full-length AvrRps4 EE/AA (E175A/E187A) with C-terminal 4xmyc tag (protein, UniProt Q52432 1-220)
chain: B1 chain with A171N, E175A, E187A
B5: full-length AvrRps4 E187A with C-terminal 4xmyc tag (protein, UniProt Q52432 1-220)
chain: B1 chain with A171N, E187A
B6: full-length AvrRps4 Q194A with C-terminal 4xmyc tag (protein, UniProt Q52432 1-220)
chain: B1 chain with A171N, Q194A

Where a chain is given by its changes, count along the chain named. Numbers in names are those of the source. No constants are given. Whether binding was seen depends on the method and setting. In cells and extracts the contact can be indirect. A result given as binding can be weak or reduced; the word gives no strength. Sequences can lack the tags named with a protein.

For this experiment, the target named is RRS1-R^WRKY+83 with C-terminal 6xHis/3xFLAG tag (Arabidopsis). As to the kind of experiment: co-IP; transient coexpression in N. benthamiana; RRS1-R^WRKY+83 (6xHis/3xFLAG) precipitated with anti-FLAG magnetic beads, AvrRps4 variants (4xmyc) detected by blot.
As for B1, the binding result is recorded as “binds”. To B2 belongs “no binding”; to B3, “no binding”; to B4, “no binding”. For B5, the binding result is “no binding”. On to B6, for which the binding result is “binds weakly”.
